Tests used:
[1] = Interactivity with adenosine by 1H NMR of a mixed solution; conditions: molar ratio 1:1, pH 7.0 to 7.5, 100 mM, heavy water, 30° C.
Description: The ^1H NMR spectrum of a mixed solution obtained by dissolving the THGP octamer and adenosine (mixing molar ratio 1:1, pH 7.0 to 7.5, 100 mM) in heavy water was measured under the measurement conditions of 30° C., scan times of 16, and 300 MHz. The signal of residual HOD was offset to 4.80 ppm. For comparison, a mixed solution of Ge-132 and adenosine was measured in the same way.

[2] = Interactivity with H2S (NaHS) by 1H NMR of a mixed solution; conditions: molar ratio 1:1, pH 7.0 to 7.5, 20 mM, 10 mM phosphate buffer pH 7.4 in heavy water, 25° C.
Description: The ^1H NMR spectrum of a mixed solution obtained by dissolving the THGP octamer and NaHS (a sodium salt of H2S) (mixing molar ratio 1:1, pH 7.0 to 7.5, 20 mM) in a 10 mM phosphate buffer (pH 7.4) prepared with heavy water, was measured under the measurement conditions of 25° C., scan times of 16, and 300 MHz. The signal of residual HOD was offset to 4.80 ppm. For comparison, a mixed solution of Ge-132 and NaHS was measured in the same manner.

Substance | reactivity with adenosine (new 1H NMR signals of complex with THGP) [1] | reactivity with NaHS (new 1H NMR signals of complex with THGP) [2]
1,7,9,15-tetra(2′-sodium carboxyethylgermanium)-3,5,11,13-tetra-[sodium propanato(2-)-C^3′,O′]-germanium-2,4,6,8,10,12,14,16,17,18,19,20-dodecaoxa-pentacyclo[8.1^1,5.1^7,11.1^9,13.1^3,15.]icosane [THGP octamer] | shows reactivity with adenosine | shows reactivity with NaHS
poly-trans-[(2-carboxyethyl)germasesquioxane] [Ge-132, reference compound] | shows reactivity with adenosine | shows reactivity with NaHS

Source: patent publication US11981693B2, “Organogermanium compound” (ASAI Germanium Research Institute Co., Ltd., priority 2019, dated 2024)
